The values below come from the supplement of paper PMC12819154, “High-throughput peptide-centric local stability assay extends protein–ligand identification to membrane proteins, tissues and bacteria” (Nature Structural & Molecular Biology, 2025).

Chains of the proteins cited; added tags and fusions are not shown. Lines headed by an entry give the natural chain unless they say otherwise; changes in a name come on top.
UniProt Q86UV5: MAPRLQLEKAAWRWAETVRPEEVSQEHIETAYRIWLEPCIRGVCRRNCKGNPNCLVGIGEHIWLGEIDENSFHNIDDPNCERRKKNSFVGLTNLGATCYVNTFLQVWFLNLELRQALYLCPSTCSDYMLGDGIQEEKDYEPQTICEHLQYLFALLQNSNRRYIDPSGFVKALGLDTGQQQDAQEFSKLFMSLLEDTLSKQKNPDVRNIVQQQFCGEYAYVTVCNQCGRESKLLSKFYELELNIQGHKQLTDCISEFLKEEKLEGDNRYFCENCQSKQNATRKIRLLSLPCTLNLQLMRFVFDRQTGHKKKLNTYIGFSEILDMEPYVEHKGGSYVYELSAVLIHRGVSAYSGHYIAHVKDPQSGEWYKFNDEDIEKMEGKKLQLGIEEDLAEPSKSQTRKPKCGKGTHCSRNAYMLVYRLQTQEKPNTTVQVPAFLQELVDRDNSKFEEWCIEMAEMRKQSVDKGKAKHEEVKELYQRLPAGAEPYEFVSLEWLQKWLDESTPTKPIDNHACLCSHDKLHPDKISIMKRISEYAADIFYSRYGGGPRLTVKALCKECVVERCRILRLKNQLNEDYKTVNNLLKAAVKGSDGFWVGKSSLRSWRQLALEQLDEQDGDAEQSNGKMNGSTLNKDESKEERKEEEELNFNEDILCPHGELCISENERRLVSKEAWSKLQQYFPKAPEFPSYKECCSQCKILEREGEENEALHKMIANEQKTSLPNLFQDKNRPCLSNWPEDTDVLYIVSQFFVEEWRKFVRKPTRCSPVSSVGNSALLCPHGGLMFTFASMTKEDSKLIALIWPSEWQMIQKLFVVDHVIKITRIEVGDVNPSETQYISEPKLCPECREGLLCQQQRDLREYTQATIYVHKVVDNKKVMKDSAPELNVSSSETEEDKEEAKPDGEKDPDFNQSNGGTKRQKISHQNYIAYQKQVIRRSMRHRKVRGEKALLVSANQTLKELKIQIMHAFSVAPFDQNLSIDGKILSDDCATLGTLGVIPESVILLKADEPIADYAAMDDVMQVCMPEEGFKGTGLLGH
UniProt Q86WG5: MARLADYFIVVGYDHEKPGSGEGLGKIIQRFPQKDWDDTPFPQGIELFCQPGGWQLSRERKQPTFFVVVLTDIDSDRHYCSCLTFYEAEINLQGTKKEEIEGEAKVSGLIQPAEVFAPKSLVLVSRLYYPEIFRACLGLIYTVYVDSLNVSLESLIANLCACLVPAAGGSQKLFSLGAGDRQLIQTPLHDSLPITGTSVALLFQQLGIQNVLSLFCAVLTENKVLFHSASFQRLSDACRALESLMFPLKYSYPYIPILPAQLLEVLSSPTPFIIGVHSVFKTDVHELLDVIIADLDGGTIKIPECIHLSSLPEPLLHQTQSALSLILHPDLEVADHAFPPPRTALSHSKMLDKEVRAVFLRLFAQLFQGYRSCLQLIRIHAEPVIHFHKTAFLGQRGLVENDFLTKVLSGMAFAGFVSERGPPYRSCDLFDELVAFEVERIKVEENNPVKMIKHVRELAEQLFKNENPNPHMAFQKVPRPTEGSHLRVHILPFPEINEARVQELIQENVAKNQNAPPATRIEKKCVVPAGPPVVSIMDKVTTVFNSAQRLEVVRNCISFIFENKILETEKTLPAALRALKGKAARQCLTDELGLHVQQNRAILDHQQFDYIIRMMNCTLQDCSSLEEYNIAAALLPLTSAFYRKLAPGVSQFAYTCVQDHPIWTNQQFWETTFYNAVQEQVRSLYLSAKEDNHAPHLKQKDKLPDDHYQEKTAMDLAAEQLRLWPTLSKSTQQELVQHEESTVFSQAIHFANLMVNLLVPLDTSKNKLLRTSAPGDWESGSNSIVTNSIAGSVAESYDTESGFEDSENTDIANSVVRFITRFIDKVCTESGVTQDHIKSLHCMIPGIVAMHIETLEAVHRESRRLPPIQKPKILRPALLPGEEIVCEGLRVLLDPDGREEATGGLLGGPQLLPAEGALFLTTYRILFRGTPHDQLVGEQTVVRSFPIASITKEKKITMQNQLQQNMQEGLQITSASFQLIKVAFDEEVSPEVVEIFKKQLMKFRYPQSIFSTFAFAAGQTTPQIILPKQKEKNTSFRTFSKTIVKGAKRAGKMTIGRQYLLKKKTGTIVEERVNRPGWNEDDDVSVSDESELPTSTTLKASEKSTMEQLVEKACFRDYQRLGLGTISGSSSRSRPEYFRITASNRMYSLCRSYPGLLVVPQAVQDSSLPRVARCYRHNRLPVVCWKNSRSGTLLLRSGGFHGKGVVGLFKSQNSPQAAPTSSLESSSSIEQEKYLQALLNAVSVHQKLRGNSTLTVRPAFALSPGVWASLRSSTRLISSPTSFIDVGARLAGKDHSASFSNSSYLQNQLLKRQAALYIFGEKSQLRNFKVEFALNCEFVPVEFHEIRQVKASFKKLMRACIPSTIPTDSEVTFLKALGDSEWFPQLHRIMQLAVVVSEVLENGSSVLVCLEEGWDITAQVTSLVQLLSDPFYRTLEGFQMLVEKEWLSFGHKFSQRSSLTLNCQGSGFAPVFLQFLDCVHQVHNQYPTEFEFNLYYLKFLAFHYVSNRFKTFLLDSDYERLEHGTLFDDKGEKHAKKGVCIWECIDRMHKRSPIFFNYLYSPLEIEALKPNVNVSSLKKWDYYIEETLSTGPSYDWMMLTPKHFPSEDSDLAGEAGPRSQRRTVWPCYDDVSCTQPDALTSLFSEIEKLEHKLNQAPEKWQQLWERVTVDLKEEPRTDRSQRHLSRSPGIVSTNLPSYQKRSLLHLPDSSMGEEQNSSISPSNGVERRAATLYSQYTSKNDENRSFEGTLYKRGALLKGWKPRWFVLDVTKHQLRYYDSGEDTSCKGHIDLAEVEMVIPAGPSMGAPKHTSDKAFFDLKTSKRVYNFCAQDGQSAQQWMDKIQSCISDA
UniProt Q8IZJ1, whole entry: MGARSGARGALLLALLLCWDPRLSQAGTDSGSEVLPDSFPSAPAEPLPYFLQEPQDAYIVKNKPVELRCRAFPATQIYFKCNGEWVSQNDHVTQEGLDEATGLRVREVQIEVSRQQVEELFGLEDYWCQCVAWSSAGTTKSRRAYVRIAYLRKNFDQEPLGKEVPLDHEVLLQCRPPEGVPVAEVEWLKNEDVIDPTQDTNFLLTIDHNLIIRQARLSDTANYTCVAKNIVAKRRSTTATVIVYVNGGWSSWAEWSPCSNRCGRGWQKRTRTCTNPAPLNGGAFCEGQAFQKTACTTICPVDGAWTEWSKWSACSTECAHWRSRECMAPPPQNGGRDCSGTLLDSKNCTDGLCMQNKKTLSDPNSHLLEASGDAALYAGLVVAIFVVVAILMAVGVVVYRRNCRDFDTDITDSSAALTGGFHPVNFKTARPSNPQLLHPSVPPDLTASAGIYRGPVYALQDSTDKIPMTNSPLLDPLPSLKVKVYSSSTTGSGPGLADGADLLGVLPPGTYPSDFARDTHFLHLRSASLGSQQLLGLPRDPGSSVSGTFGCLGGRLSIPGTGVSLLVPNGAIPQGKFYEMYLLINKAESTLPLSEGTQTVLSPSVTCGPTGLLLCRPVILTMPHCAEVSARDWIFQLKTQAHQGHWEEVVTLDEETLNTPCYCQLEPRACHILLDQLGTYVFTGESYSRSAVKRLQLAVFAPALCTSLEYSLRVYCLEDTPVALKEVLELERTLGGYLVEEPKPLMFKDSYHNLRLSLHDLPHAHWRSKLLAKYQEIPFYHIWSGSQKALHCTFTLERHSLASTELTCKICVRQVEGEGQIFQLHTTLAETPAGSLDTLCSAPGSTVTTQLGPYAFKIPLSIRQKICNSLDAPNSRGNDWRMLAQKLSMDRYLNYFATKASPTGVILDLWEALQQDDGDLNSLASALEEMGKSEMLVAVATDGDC
UniProt Q8IW50: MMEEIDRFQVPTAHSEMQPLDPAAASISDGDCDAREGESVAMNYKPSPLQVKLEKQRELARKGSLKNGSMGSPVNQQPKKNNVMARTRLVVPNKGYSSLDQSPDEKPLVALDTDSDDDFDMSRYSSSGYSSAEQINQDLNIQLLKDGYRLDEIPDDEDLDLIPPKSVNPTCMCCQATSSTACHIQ
UniProt Q8IVM0: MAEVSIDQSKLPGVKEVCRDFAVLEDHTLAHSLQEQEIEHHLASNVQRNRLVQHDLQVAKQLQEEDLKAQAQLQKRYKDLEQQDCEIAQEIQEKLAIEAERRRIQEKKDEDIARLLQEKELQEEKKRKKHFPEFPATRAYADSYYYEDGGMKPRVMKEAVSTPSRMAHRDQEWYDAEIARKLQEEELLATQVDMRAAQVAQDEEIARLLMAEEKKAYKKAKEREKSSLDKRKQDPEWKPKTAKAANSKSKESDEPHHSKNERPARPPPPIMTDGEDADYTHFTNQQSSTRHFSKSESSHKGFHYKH
UniProt Q8IYI6: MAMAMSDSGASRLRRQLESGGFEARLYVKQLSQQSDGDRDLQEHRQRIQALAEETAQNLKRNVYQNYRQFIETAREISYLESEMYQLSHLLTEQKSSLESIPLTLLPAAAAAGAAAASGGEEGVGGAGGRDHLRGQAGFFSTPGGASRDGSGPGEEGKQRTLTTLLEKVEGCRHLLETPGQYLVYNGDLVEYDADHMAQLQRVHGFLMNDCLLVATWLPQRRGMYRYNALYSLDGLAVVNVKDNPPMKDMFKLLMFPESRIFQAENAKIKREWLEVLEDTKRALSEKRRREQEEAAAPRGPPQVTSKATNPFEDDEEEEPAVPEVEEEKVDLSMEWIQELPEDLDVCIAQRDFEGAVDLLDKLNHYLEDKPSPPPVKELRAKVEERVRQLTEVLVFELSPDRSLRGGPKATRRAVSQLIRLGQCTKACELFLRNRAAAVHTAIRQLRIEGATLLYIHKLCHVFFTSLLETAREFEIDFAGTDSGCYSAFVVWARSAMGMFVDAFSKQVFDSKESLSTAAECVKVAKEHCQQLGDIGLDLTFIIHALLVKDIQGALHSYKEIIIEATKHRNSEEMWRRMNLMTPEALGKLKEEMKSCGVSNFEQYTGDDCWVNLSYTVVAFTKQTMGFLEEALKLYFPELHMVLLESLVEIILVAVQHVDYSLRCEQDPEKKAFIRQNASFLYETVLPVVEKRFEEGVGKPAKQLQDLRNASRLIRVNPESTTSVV
UniProt Q8IV08: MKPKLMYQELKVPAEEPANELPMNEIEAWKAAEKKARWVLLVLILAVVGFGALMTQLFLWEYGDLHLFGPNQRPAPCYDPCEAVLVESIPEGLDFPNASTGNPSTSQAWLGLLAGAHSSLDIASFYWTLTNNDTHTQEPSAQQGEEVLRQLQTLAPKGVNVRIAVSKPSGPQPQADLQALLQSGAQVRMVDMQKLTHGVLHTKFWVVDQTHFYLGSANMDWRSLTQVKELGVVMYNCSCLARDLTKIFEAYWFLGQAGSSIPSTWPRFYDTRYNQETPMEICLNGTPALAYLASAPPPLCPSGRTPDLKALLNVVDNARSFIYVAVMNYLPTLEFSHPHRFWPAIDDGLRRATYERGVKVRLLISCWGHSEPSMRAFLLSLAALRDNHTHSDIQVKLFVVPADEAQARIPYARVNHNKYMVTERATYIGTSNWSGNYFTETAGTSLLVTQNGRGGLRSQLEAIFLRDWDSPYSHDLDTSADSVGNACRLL
UniProt Q8IVE0: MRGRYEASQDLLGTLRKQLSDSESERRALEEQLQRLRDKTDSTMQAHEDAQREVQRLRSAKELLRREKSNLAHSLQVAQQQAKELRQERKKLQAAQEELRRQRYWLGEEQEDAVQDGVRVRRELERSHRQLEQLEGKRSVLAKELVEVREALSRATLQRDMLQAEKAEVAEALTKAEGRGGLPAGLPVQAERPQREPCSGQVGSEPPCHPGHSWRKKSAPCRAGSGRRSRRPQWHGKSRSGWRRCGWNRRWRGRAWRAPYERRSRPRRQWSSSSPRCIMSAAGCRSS
UniProt Q8IYA6: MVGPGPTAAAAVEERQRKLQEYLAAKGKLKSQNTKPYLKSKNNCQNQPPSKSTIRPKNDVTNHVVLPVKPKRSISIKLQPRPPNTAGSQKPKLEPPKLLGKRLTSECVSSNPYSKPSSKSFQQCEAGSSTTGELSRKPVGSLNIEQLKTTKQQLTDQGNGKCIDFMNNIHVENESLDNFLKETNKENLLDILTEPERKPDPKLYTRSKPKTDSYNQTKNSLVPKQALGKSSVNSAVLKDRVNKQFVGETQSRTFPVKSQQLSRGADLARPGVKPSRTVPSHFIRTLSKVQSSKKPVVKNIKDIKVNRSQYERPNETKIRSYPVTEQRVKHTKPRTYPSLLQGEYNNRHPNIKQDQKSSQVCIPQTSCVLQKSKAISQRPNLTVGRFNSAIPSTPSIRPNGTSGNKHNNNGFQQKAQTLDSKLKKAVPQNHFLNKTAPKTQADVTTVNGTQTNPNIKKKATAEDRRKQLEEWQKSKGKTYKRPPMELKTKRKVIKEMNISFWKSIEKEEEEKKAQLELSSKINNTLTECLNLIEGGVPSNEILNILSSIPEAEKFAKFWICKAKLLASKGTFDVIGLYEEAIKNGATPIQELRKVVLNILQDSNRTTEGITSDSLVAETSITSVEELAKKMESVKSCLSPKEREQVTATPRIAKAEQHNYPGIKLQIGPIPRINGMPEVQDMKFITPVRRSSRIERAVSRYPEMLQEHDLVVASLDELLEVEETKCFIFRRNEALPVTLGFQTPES

The other results are listed elsewhere or left out. Most entries show no effect beyond the scatter of the controls.

Compound in this assay: Cc1nc(Nc2ncc(C(=O)Nc3c(C)cccc3Cl)s2)cc(N2CCN(CCO)CC2)n1 [dasatinib]
Briefly: log2 fold change of tryptic peptide abundance, ligand vs vehicle (limited proteolysis) (log2 ratio); higher = more trypsin-susceptible (destabilized). The conditions noted are these: ligand concentration: 5 uM; sample: K562 cleared lysate.
“USP48 (peptide sequence: ALLVSANQTLKELK, peptide start residue: 946) (UniProt Q86UV5)”: the log2 fold change amounted to 0.243.

In the case of “SBF2 (peptide sequence: AATLYSQYTSK, peptide start residue: 1729) (UniProt Q86WG5)”, the log2 fold change was -0.165.

Turning to “UNC5B (peptide sequence: ICNSLDAPNSR, peptide start residue: 866) (UniProt Q8IZJ1)”, the log2 fold change is -0.05.

As for “FAM219A (peptide sequence: EGESVAMNYKPSPLQVK, peptide start residue: 36) (UniProt Q8IW50)”, the log2 fold change is -0.403.

On to “CCDC50 (peptide sequence: LVQHDLQVAK, peptide start residue: 51) (UniProt Q8IVM0)”, for which the log2 fold change was -0.205.

“EXOC8 (peptide sequence: AAAVHTAIR, peptide start residue: 436) (UniProt Q8IYI6)”: the log2 fold change is 0.475.

Regarding “PLD3 (peptide sequence: ALLNVVDNAR, peptide start residue: 310) (UniProt Q8IV08)”, the log2 fold change was -0.181.

Consider “UniProt Q8IVE0 (peptide sequence: LQAAQEELR, peptide start residue: 629)”, for which the log2 fold change is -0.229.

Take “CKAP2L (peptide sequence: QLEEWQK, peptide start residue: 467) (UniProt Q8IYA6)”: the log2 fold change is -0.43.

Take “MISP (peptide sequence: ERESVLR, peptide start residue: 310) (UniProt Q8IVT2)”: the log2 fold change was -0.056.
